Laboratory results: PubChem BioAssay AID720505 (Drosophila RNAi Screening Center, 2013)
Aim: 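Fly regulators or components of the CRAC channel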 (primary screen). System: Drosophila S2R+ cells. Knock-down reagent: long dsRNA against Drosophila genes. Conditions: thapsigargin (2 µM) in calcium-free buffer to empty internal stores, then 2 mM calcium added back. Measured: 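Stores emptied by 2 µM thapsigargin without calcium, then 2 mM calcium re-added; fluo-4 fluorescence followed by FLIPR in 384-well plates, per-well averaged endpoint, raw; two screen passes, some wells retested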. Scale: calcium signal and retest calcium signal: higher = more calcium entry after store depletion. Rule for the call: 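About 1500 genes called as lowering calcium entry, by varying amounts, judged against per-plate control wells with STIM1 as positive and Rho1 as negative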. Meaning of the calls: active = called as lowering calcium entry; inactive = not called.
The screen tested about 20,000 reagents; this is an unselected part of those that have a named target and a result. In the full data, about 2,100 (10%) are marked active. 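Raw plate signals without normalisation; calls rest on control-based scores that were not deposited; replicate 2 separates called from uncalled poorly.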 A number with no mark means an inactive call. Not given: the amount of reagent, the time to read-out.

| Target gene | DRSC id | calcium signal, replicate 1 | calcium signal, replicate 2 | retest calcium signal, replicate 1 | retest calcium signal, replicate 2 |
| --- | --- | --- | --- | --- | --- |
| mEFTu2 (GeneID 35681) | DRSC06163 | 216 | 86.1 | – | – |
| CG4338 (GeneID 41849) | DRSC15564 | 109 | 104 | – | – |
| CG9269 (GeneID 41663) | DRSC16465 | 120 | 200 | – | – |
| cmet (GeneID 53561) | DRSC03511 | 177 | 141 | – | – |
| Pih1D1 (GeneID 34685) | DRSC02897 | 76.3 | 158 | – | – |
| CG11898 (GeneID 43451) | DRSC14432 | 99.5 | 94.7 | 68.3 | 103 |
| Dtg (GeneID 41558) | DRSC15998 | 116 | 128 | – | – |
| Inx3 (GeneID 44266) | DRSC14857 | 115 | 152 | – | – |
| Cyp9b2 (GeneID 35635) | DRSC07390 | 123 | 137 | – | – |
| CG15429 (GeneID 33637) | DRSC00444 | 65.3 (active) | 101 | – | – |
| Cad87A (GeneID 41441) | DRSC16161 | 98.9 | 118 | – | – |
| l(2)37Cb (GeneID 35192) | DRSC02095 | 115 | 144 | – | – |
| Pgant7 (GeneID 32836) | DRSC19991 | 155 | 120 | – | – |
| Lipt1 (GeneID 36795) | DRSC05600 | 45.4 (active) | 106 | – | – |
| CG1552 (GeneID 32035) | DRSC19665 | 125 | 92.7 | – | – |
| Rtnl1 (GeneID 33721) | DRSC00851 | 74.1 | 169 | – | – |
| Rtnl1 (GeneID 33721) | DRSC02684 | 106 | 191 | – | – |
| Rtnl1 (GeneID 33721) | DRSC03122 | 91.8 | 150 | – | – |
| Rtnl1 (GeneID 33721) | DRSC21698 | 65 | 172 | – | – |
| Jhbp15 (GeneID 42489) | DRSC15217 | 140 | 121 | – | – |
| mRpL14 (GeneID 31222) | DRSC18597 | 77.8 | 106 | – | – |
| CG10809 (GeneID 39159) | DRSC09802 | 96.3 | 109 | – | – |
| Lmx1a (GeneID 39406) | DRSC09726 | 114 | 95.1 | – | – |
| Lmx1a (GeneID 39406) | DRSC10275 | 68.9 (active) | 103 | – | – |
| CG8517 (GeneID 37268) | DRSC07205 | 178 | 203 | – | – |
| Tsp42Ed (GeneID 35613) | DRSC05940 | 81.1 | 89.5 | – | – |
| rept (GeneID 40092) | DRSC11388 | 66.3 (active) | 132 | – | – |
| CG16826 (GeneID 34741) | DRSC02527 | 102 | 106 | – | – |
| CG17110 (GeneID 42729) | DRSC15173 | 242 | 159 | – | – |
| CG6048 (GeneID 31528) | DRSC18398 | 192 | 137 | – | – |
| CG18135 (GeneID 40073) | DRSC10295 | 91 | 100 | – | – |
| CG33286 (GeneID 2768984) | DRSC11691 | 66.7 (active) | 88 | – | – |
| dpr10 (GeneID 39180) | DRSC10159 | 109 | 69.1 | – | – |
| dpr10 (GeneID 39180) | DRSC10160 | 91.2 | 67.3 | – | – |
| dpr5 (GeneID 41381) | DRSC15766 | 165 | 127 | – | – |
| alphaTub85E (GeneID 41183) | DRSC16899 | 68.3 (active) | 98.8 | – | – |
| Ugt302K1 (GeneID 53502) | DRSC16086 | 68.7 (active) | 81.9 | – | – |
| mira (GeneID 42379) | DRSC16998 | 214 | 267 | – | – |
| CG15369 (GeneID 31862) | DRSC18041 | 82.9 | 95 | – | – |
| ATPCL (GeneID 36760) | DRSC05913 | 115 | 112 | – | – |
| corolla (GeneID 32739) | DRSC20102 | 163 | 99.1 | – | – |
| CG11726 (GeneID 39275) | DRSC09858 | 81.8 | 112 | – | – |
| CG7601 (GeneID 43502) | DRSC14131 | 81.2 | 102 | – | – |
| CG34124 (GeneID 4379887) | DRSC00849 | 107 | 155 | – | – |
| CG12818 (GeneID 41261) | DRSC14556 | 141 | 139 | – | – |
| CG13108 (GeneID 34240) | DRSC02206 | 187 | 149 | – | – |
| CG33469 (GeneID 2768832) | DRSC22900 | 102 | 178 | – | – |
| CR17024 (GeneID 14462752) | DRSC02562 | 95.8 | 98.9 | – | – |
| Pura (GeneID 2768948) | DRSC10862 | 98.2 | 78.1 | – | – |
| Pura (GeneID 2768948) | DRSC10864 | 82.5 | 81.2 | – | – |
| Pura (GeneID 2768948) | DRSC10865 | 98.7 | 82.1 | – | – |
| Pura (GeneID 2768948) | DRSC10866 | 98.2 | 86 | – | – |
| Osi9 (GeneID 40763) | DRSC12278 | 83.2 | 111 | – | – |
| Cyp6a22 (GeneID 49847) | DRSC07382 | 147 | 155 | – | – |
| CG9536 (GeneID 33904) | DRSC03254 | 90.4 | 218 | – | – |

Reagents listed so far called active, once more:
| Target gene | DRSC id | calcium signal, replicate 1 | calcium signal, replicate 2 | retest calcium signal, replicate 1 | retest calcium signal, replicate 2 |
| --- | --- | --- | --- | --- | --- |
| CG15429 (GeneID 33637) | DRSC00444 | 65.3 (active) | 101 | – | – |
| Lipt1 (GeneID 36795) | DRSC05600 | 45.4 (active) | 106 | – | – |
| Lmx1a (GeneID 39406) | DRSC10275 | 68.9 (active) | 103 | – | – |
| rept (GeneID 40092) | DRSC11388 | 66.3 (active) | 132 | – | – |
| CG33286 (GeneID 2768984) | DRSC11691 | 66.7 (active) | 88 | – | – |
| alphaTub85E (GeneID 41183) | DRSC16899 | 68.3 (active) | 98.8 | – | – |
| Ugt302K1 (GeneID 53502) | DRSC16086 | 68.7 (active) | 81.9 | – | – |

The listing continues:
| Target gene | DRSC id | calcium signal, replicate 1 | calcium signal, replicate 2 | retest calcium signal, replicate 1 | retest calcium signal, replicate 2 |
| --- | --- | --- | --- | --- | --- |
| CG7991 (GeneID 38214) | DRSC08609 | 64.1 | 93.4 | – | – |
| IP3K1 (GeneID 34300) | DRSC02734 | 124 | 102 | – | – |
| CG14258 (GeneID 43260) | DRSC14753 | 151 | 154 | – | – |
| Acyp (GeneID 34807) | DRSC01861 | 67.5 (active) | 107 | – | – |
| Lrch (GeneID 35041) | DRSC02996 | 74.7 | 87.4 | – | – |
| CG10257 (GeneID 36671) | DRSC05985 | 113 | 195 | – | – |
| CG9368 (GeneID 40135) | DRSC11067 | 101 | 104 | – | – |
| Cyp305a1 (GeneID 40161) | DRSC11126 | 111 | 111 | – | – |
| CG14565 (GeneID 40423) | DRSC11726 | 114 | 177 | – | – |
| CG31140 (GeneID 42836) | DRSC14603 | 119 | 152 | – | – |
| CG31140 (GeneID 42836) | DRSC15904 | 252 | 118 | – | – |
| Snoo (GeneID 5740414) | DRSC01008 | 164 | 105 | – | – |
| Snoo (GeneID 5740414) | DRSC03004 | 170 | 186 | – | – |
| Snoo (GeneID 5740414) | DRSC03035 | 102 | 118 | – | – |
| CG4793 (GeneID 34941) | DRSC01966 | 114 | 143 | – | – |
| CheA29a (GeneID 246659) | DRSC21486 | 183 | 116 | – | – |
| GILT3 (GeneID 42787) | DRSC14672 | 63.2 (active) | 119 | – | – |
| Jhbp12 (GeneID 42924) | DRSC14621 | 233 | 126 | – | – |
| wuho (GeneID 31566) | DRSC18101 | 170 | 119 | – | – |
| Ldaf1 (GeneID 326240) | DRSC17963 | 102 | 156 | – | – |
| CG34404 (GeneID 41873) | DRSC15335 | 124 (active) | 78.8 | – | – |
| CG34404 (GeneID 41873) | DRSC15978 | 90.1 | 105 | – | – |
| CG9649 (GeneID 41727) | DRSC16534 | 101 | 167 | – | – |
| Su(Tpl) (GeneID 40171) | DRSC10954 | 92 | 83.8 | – | – |
| OS9 (GeneID 59167) | DRSC02700 | 132 | 118 | – | – |
| hgo (GeneID 34552) | DRSC03544 | 176 | 186 | – | – |
| Hnf4 (GeneID 44544) | DRSC01032 | 227 | 114 | – | – |
| Hnf4 (GeneID 44544) | DRSC03344 | 98.5 | 132 | – | – |
